# Results are given in words; binding and its absence hold for the method and conditions named. Some entries that bind do so weakly or less than the wild type.
# By UniProt entry, the sequences of proteins in these tests, tags left out. Where a name states a change or a piece, a line headed by the entry shows the natural chain unless it says otherwise. Residues count along the entry.
# UniProt P19909, residues 303-497: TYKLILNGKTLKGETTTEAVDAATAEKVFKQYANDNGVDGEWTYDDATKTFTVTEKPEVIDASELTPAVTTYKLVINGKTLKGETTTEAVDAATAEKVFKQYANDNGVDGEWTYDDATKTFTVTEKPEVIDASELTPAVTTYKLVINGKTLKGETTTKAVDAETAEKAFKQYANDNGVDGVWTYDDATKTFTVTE
# UniProt P29460: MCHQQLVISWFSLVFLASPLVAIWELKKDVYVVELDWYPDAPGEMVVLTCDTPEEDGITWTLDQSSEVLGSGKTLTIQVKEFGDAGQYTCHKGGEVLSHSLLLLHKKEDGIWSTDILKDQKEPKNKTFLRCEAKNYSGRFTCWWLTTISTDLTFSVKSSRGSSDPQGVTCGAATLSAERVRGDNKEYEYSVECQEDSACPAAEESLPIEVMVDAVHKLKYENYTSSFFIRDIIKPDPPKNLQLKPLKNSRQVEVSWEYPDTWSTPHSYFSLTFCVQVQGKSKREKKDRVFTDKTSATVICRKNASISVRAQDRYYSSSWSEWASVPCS
# Target: Protein G (chromatography bead) (UniProt P19909)
# Assay: Protein G affinity chromatography bead
row,binding,Substance
1,binds,human IL-12Fc AAA (from UniProt P29460 23-328; P29459 23-219) (Fc fusion)
2,binds,human IL-12Fc AAE (from UniProt P29460 23-328; P29459 23-219) (Fc fusion)
3,binds,human IL-12Fc AAH (from UniProt P29460 23-328; P29459 23-219) (Fc fusion)
4,binds,human IL-12Fc AAQ (from UniProt P29460 23-328; P29459 23-219) (Fc fusion)
5,binds,human IL-12Fc AHH (from UniProt P29460 23-328; P29459 23-219) (Fc fusion)
6,binds,human IL-12Fc AHQ (from UniProt P29460 23-328; P29459 23-219) (Fc fusion)
7,binds,human IL-12Fc IAQ (from UniProt P29460 23-328; P29459 23-219) (Fc fusion)
8,binds,human IL-12Fc NHH (from UniProt P29460 23-328; P29459 23-219) (Fc fusion)
9,binds,human IL-12Fc WT (from UniProt P29460 23-328; P29459 23-219) (Fc fusion)

# From patent publication EP3766512A1
